The results in this text go back to publication PMC8693860.

These are yes or no findings as the source states them, for the method shown. A result given as binding can be weak or reduced; the word gives no strength. Where a sequence is shown, tags or fusion partners need not be part of it.

This test deals with T1, SF-tagged Atg8 (S. cerevisiae) (UniProt P38182).
T1 sequence: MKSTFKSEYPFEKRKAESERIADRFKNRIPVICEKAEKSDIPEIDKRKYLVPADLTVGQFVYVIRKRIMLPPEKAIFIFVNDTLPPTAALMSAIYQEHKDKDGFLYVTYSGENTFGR
Kind of test: pull-down; SF-tagged Atg8 on anti-FLAG resin as bait; Atg1 preparations (whole, AIM mutants, truncations) autophosphorylated (ATP/Mg2+) or dephosphorylated with λ-PP, treated with apyrase before addition; 15 min at room temperature, three washes, elution with 3xFLAG peptide, SDS-PAGE; both purified.

Regarding “Atg1 N-terminal kinase domain (truncation of Atg1^ΔAIM/S^>^A) (S. cerevisiae) (domain or fragment)”, the binding result is on record as “binds weakly”. On to “Atg1 central region (truncation of Atg1^ΔAIM/S^>^A) (S. cerevisiae) (domain or fragment)”, for which the binding entry is “no binding”.
